In the supplement of paper PMC8728848:
Some of the results follow.

Tests used:
Experiment in all cases: glycan array binding signal (z-score within array); higher = stronger binding
Conditions in all cases: glycan notation: IUPAC condensed, linker removed
GlcNAc(b1-3)Gal(b1-4)Glc = target: GlcNAc(b1-3)Gal(b1-4)Glc
Method in brief: (§1)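 Glycan array binding is given as a within-array Z-score, which can be read as non-binding when negative. The arrays, 3228 of them, came from the Consortium for Functional Glycomics database and were retained only where the protein sequence was available. Z-scores were averaged across arrays of the same protein sequence at different concentrations or buffers and across linkers.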

[1] = target: GlcNAc(b1-3)Gal(b1-4)GlcNAc
Method in brief: as §1

[2] = target: GlcNAc(b1-3)Gal(b1-4)GlcNAc(b1-3)Gal(b1-4)GlcNAc
Method in brief: as §1

GlcNAc(b1-3)GalNAc = target: GlcNAc(b1-3)GalNAc
Method in brief: as §1

GlcNAc(b1-3)Man = target: GlcNAc(b1-3)Man
Method in brief: as §1

[3] = target: GlcNAc(b1-3)[GlcNAc(b1-4)][GlcNAc(b1-6)]GlcNAc
Method in brief: as §1

[4] = target: GlcNAc(b1-3)[GlcNAc(b1-6)]Gal(b1-4)GlcNAc
Method in brief: as §1

[5] = target: GlcNAc(b1-3)[GlcNAc(b1-6)]GalNAc
Method in brief: as §1

[6] = target: GlcNAc(b1-4)Gal(b1-4)GlcNAc
Method in brief: as §1

GlcNAc(b1-4)GlcNAc = target: GlcNAc(b1-4)GlcNAc
Method in brief: as §1

[7] = target: GlcNAc(b1-4)GlcNAc(b1-4)GlcNAc
Method in brief: as §1

[8] = target: GlcNAc(b1-4)GlcNAc(b1-4)GlcNAc(b1-4)GlcNAc(b1-4)GlcNAc
Method in brief: as §1

[9] = target: GlcNAc(b1-4)GlcNAc(b1-4)GlcNAc(b1-4)GlcNAc(b1-4)GlcNAc(b1-4)GlcNAc
Method in brief: as §1

[10] = target: GlcNAc(b1-4)[GlcNAc(b1-6)]GalNAc
Method in brief: as §1

[11] = target: GlcNAc(b1-6)Gal(b1-4)GlcNAc
Method in brief: as §1

GlcNAc(b1-6)GalNAc = target: GlcNAc(b1-6)GalNAc
Method in brief: as §1

GlcNAc3Prop(b1-4)GlcNAc = target: GlcNAc3Prop(b1-4)GlcNAc
Method in brief: as §1

[12] = target: GlcNAc6S(b1-3)Gal(b1-4)GlcNAc
Method in brief: as §1

Kdn(a2-3)Gal(b1-3)GalNAc = target: Kdn(a2-3)Gal(b1-3)GalNAc
Method in brief: as §1

Kdn(a2-3)Gal(b1-3)GlcNAc = target: Kdn(a2-3)Gal(b1-3)GlcNAc
Method in brief: as §1

Kdn(a2-3)Gal(b1-4)Glc = target: Kdn(a2-3)Gal(b1-4)Glc
Method in brief: as §1

Kdn(a2-3)Gal(b1-4)GlcNAc = target: Kdn(a2-3)Gal(b1-4)GlcNAc
Method in brief: as §1

[13] = target: Kdn(a2-3)Gal(b1-4)[Fuc(a1-3)]GlcNAc
Method in brief: as §1

Kdn(a2-6)Gal(b1-4)GlcNAc = target: Kdn(a2-6)Gal(b1-4)GlcNAc
Method in brief: as §1

[14] = target: Man(a1-2)Man(a1-2)Man(a1-3)Man
Method in brief: as §1

[15] = target: Man(a1-2)Man(a1-2)Man(a1-6)[Man(a1-3)]Man
Method in brief: as §1

Man(a1-2)Man(a1-3)Man = target: Man(a1-2)Man(a1-3)Man
Method in brief: as §1

[16] = target: Man(a1-2)Man(a1-3)[Man(a1-2)Man(a1-6)]Man
Method in brief: as §1

[17] = target: Man(a1-2)Man(a1-3)[Man(a1-2)Man(a1-6)]Man(a1-6)[Man(a1-2)Man(a1-2)Man(a1-3)]Man
Method in brief: as §1

[18] = target: Man(a1-2)Man(a1-3)[Man(a1-2)Man(a1-6)]Man(a1-6)[Man(a1-2)Man(a1-2)Man(a1-3)]Man(b1-4)GlcNAc(b1-4)GlcNAc
Method in brief: as §1

[19] = target: Man(a1-2)Man(a1-3)[Man(a1-6)]Man(a1-6)[Man(a1-2)Man(a1-3)]Man(b1-4)GlcNAc(b1-4)GlcNAc
Method in brief: as §1

[20] = target: Man(a1-2)Man(a1-6)[Man(a1-3)]Man(a1-6)[Man(a1-2)Man(a1-2)Man(a1-3)]Man
Method in brief: as §1

[21] = target: Man(a1-2)Man(a1-6)[Man(a1-3)]Man(a1-6)[Man(a1-2)Man(a1-2)Man(a1-3)]Man(b1-4)GlcNAc(b1-4)GlcNAc
Method in brief: as §1

Man(a1-3)[Man(a1-6)]Man = target: Man(a1-3)[Man(a1-6)]Man
Method in brief: as §1

[22] = target: Man(a1-3)[Man(a1-6)]Man(a1-6)[Man(a1-2)Man(a1-3)]Man(b1-4)GlcNAc(b1-4)GlcNAc
Method in brief: as §1

[23] = target: Man(a1-3)[Man(a1-6)]Man(a1-6)[Man(a1-3)]Man
Method in brief: as §1

[24] = target: Man(a1-3)[Man(a1-6)]Man(a1-6)[Man(a1-3)]Man(b1-4)GlcNAc(b1-4)GlcNAc
Method in brief: as §1

[25] = target: Man(a1-3)[Man(a1-6)]Man(b1-4)GlcNAc(b1-4)GlcNAc
Method in brief: as §1

Man(a1-6)Man = target: Man(a1-6)Man
Method in brief: as §1

Man(b1-4)GlcNAc = target: Man(b1-4)GlcNAc
Method in brief: as §1

Neu5Ac(a2-3)Gal = target: Neu5Ac(a2-3)Gal
Method in brief: as §1

[26] = target: Neu5Ac(a2-3)Gal(b1-3)GalNAc
Method in brief: as §1

[27] = target: Neu5Ac(a2-3)Gal(b1-3)GalNAc(b1-3)Gal(a1-4)Gal(b1-4)Glc
Method in brief: as §1

[28] = target: Neu5Ac(a2-3)Gal(b1-3)GalNAc(b1-4)[Neu5Ac(a2-3)]Gal(b1-4)Glc
Method in brief: as §1

[29] = target: Neu5Ac(a2-3)Gal(b1-3)GalNAc(b1-4)[Neu5Ac(a2-8)Neu5Ac(a2-3)]Gal(b1-4)Glc
Method in brief: as §1

[30] = target: Neu5Ac(a2-3)Gal(b1-3)GalNAc6S
Method in brief: as §1

[31] = target: Neu5Ac(a2-3)Gal(b1-3)GlcNAc
Method in brief: as §1

[32] = target: Neu5Ac(a2-3)Gal(b1-3)GlcNAc(b1-3)Gal(b1-3)GlcNAc
Method in brief: as §1

[33] = target: Neu5Ac(a2-3)Gal(b1-3)GlcNAc(b1-3)Gal(b1-4)GlcNAc
Method in brief: as §1

[34] = target: Neu5Ac(a2-3)Gal(b1-3)GlcNAc(b1-3)GalNAc
Method in brief: as §1

[35] = target: Neu5Ac(a2-3)Gal(b1-3)GlcNAc6S
Method in brief: as §1

[36] = target: Neu5Ac(a2-3)Gal(b1-3)[Fuc(a1-4)]GlcNAc
Method in brief: as §1

[37] = target: Neu5Ac(a2-3)Gal(b1-3)[Fuc(a1-4)]GlcNAc(b1-3)Gal(b1-3)[Fuc(a1-4)]GlcNAc
Method in brief: as §1

[38] = target: Neu5Ac(a2-3)Gal(b1-3)[Fuc(a1-4)]GlcNAc(b1-3)Gal(b1-4)[Fuc(a1-3)]GlcNAc
Method in brief: as §1

[39] = target: Neu5Ac(a2-3)Gal(b1-3)[Neu5Ac(a2-3)Gal(b1-4)]GlcNAc
Method in brief: as §1

[40] = target: Neu5Ac(a2-3)Gal(b1-3)[Neu5Ac(a2-6)]GalNAc
Method in brief: as §1

Neu5Ac(a2-3)Gal(b1-4)Glc = target: Neu5Ac(a2-3)Gal(b1-4)Glc
Method in brief: as §1

[41] = target: Neu5Ac(a2-3)Gal(b1-4)GlcNAc
Method in brief: as §1

[42] = target: Neu5Ac(a2-3)Gal(b1-4)GlcNAc(b1-2)Man(a1-3)[GlcNAc(b1-2)Man(b1-4)GlcNAc(b1-2)Man(a1-6)]Man(b1-4)GlcNAc(b1-4)GlcNAc
Method in brief: as §1

[43] = target: Neu5Ac(a2-3)Gal(b1-4)GlcNAc(b1-2)Man(a1-3)[Neu5Ac(a2-6)Gal(b1-4)GlcNAc(b1-2)Man(a1-6)]Man(b1-4)GlcNAc(b1-4)GlcNAc
Method in brief: as §1

B1: NanH (Corynebacterium diphtheriae), C6JSW6 (protein)
chain: MYSSNRTYSRAILGLSAVLTLSFTSLVAPVNAEEPETVVPATAELEGEVAATLPSAETGLLDAAPPKPVARGAAGDLQLPAVNEKEVFEEGRVIRAPEPDQSRCYRIPALVTAKNGDLLLAFDNRYGGGDGAKTWCRDAPYENMKRINRQNMQTDIQLYRSVDNGQSFEDFGYIAQGTADVRELSYTDPALVTDRTTGKIFAFFVRAYDYRVGQSSAGFNEGDVEAEIQKRDVQDTVVVESLDGGQTWGNMRLLSALTAKVSSISTGDTIFDGRGRFVTSGAGIQLQYGEHAGRLIVPISVDIDPKDSAKFINLAIYSDDHGQTWQAGIGTAGGAGFSGDVSKIVELSDGRLMMSSKDNDKPRWVSYSEDQGENWSTPKRKIIAPPQHPEKHNTGINVGLIRAYPNAPENSAAARVLLYSAPIDQRYSHKHTEDGRNNGWVMGSCDDGKTWSFGRQIEKNRFQYSSMTVMSDGNIGMVYESGDFSTGMNLKFAKFNMAWLGADCHSNEALGLTGDIDKEIVEAQEKAAEATKEAQEAAEKVQKLTEELAAARKENDELKNQVKGFKEAVGDLANEAEDLADKVFKLETAVTEAKEKATVAEKAASDAVTQLQKAESIAEEQKAKAESAAAEAQALREKLERLEGSILTVKENPEAEEIADLSSTAKDAADAARRAATDANGALSGQKQDEEKPAMGLMGILKVLAGIIPLVAIIATIFQTFRLPFNIPGMR
glycan array binding signal (z-score) (GlcNAc(b1-3)Gal(b1-4)Glc): 0.541
glycan array binding signal (z-score) [1]: -0.02
glycan array binding signal (z-score) [2]: 2.52
glycan array binding signal (z-score) (GlcNAc(b1-3)GalNAc): -0.169
glycan array binding signal (z-score) (GlcNAc(b1-3)Man): -0.51
glycan array binding signal (z-score) [3]: -0.787
glycan array binding signal (z-score) [4]: 1
glycan array binding signal (z-score) [5]: -0.047
glycan array binding signal (z-score) [6]: -0.683
glycan array binding signal (z-score) (GlcNAc(b1-4)GlcNAc): 0.142
glycan array binding signal (z-score) [7]: 0.865
glycan array binding signal (z-score) [8]: 2.69
glycan array binding signal (z-score) [9]: -0.273
glycan array binding signal (z-score) [10]: -1.13
glycan array binding signal (z-score) [11]: -0.056
glycan array binding signal (z-score) (GlcNAc(b1-6)GalNAc): -0.585
glycan array binding signal (z-score) (GlcNAc3Prop(b1-4)GlcNAc): -0.028
glycan array binding signal (z-score) [12]: 0.131
glycan array binding signal (z-score) (Kdn(a2-3)Gal(b1-3)GalNAc): 0.343
glycan array binding signal (z-score) (Kdn(a2-3)Gal(b1-3)GlcNAc): 0.225
glycan array binding signal (z-score) (Kdn(a2-3)Gal(b1-4)Glc): -0.334
glycan array binding signal (z-score) (Kdn(a2-3)Gal(b1-4)GlcNAc): 0.229
glycan array binding signal (z-score) [13]: -0.213
glycan array binding signal (z-score) (Kdn(a2-6)Gal(b1-4)GlcNAc): -0.408
glycan array binding signal (z-score) [14]: -0.136
glycan array binding signal (z-score) [15]: 2.2
glycan array binding signal (z-score) (Man(a1-2)Man(a1-3)Man): 0.086
glycan array binding signal (z-score) [16]: -1.39
glycan array binding signal (z-score) [17]: 3.74
glycan array binding signal (z-score) [18]: 0.434
glycan array binding signal (z-score) [19]: -0.263
glycan array binding signal (z-score) [20]: -0.745
glycan array binding signal (z-score) [21]: -1.3
glycan array binding signal (z-score) (Man(a1-3)[Man(a1-6)]Man): -0.151
glycan array binding signal (z-score) [22]: -0.608
glycan array binding signal (z-score) [23]: 0.012
glycan array binding signal (z-score) [24]: -0.41
glycan array binding signal (z-score) [25]: -0.475
glycan array binding signal (z-score) (Man(a1-6)Man): 0.247
glycan array binding signal (z-score) (Man(b1-4)GlcNAc): -0.567
glycan array binding signal (z-score) (Neu5Ac(a2-3)Gal): 0.353
glycan array binding signal (z-score) [26]: -0.593
glycan array binding signal (z-score) [27]: -1.15
glycan array binding signal (z-score) [28]: -0.204
glycan array binding signal (z-score) [29]: -1.39
glycan array binding signal (z-score) [30]: 1.83
glycan array binding signal (z-score) [31]: 0.707
glycan array binding signal (z-score) [32]: -0.097
glycan array binding signal (z-score) [33]: 0.292
glycan array binding signal (z-score) [34]: 2.18
glycan array binding signal (z-score) [35]: -0.246
glycan array binding signal (z-score) [36]: -0.383
glycan array binding signal (z-score) [37]: 0.874
glycan array binding signal (z-score) [38]: -0.505
glycan array binding signal (z-score) [39]: 0.277
glycan array binding signal (z-score) [40]: 0.915
glycan array binding signal (z-score) (Neu5Ac(a2-3)Gal(b1-4)Glc): -0.854
glycan array binding signal (z-score) [41]: 0.221
glycan array binding signal (z-score) [42]: 0.603
glycan array binding signal (z-score) [43]: 0.27
